Results: PubChem BioAssay AID602441 (National Center for Advancing Translational Sciences (NCATS), 2012)
Among all 1,300 compounds or so, fewer than 10 were called active. Inconclusive results (about 9%) are left out. Calls follow the shape of the dose curve; as a rule, active = well fitted curve in the direction sought with a large enough effect; inconclusive = small, poorly fitted or top-dose-only effect, or another doubt; inactive = no such curve, though single readings can be large or run the other way. Some of the results follow.

experiment: qHTS for antagonists of the Thyroid Stimulation Hormone Receptor: Hit Validation in Parental Cell Line; details: parental HEK293 cells lacking TSHR, counter-screen; series mostly up to 56.9 µM; activity change, negative = inhibition: at the top concentration; also: 0% is about no effect
Procedure, shortened: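 Counterscreen in untransfected parental HEK-EM 293 cells. Lysate cAMP displaces cAMP-d2 from cryptate-tagged anti-cAMP antibody, and homogeneous TR-FRET is read at 665 nm with 337 nm excitation after stimulation.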

Compound	activity change, negative = inhibition
NS(=O)(=O)c1ccc(CNC(=O)CCS(=O)(=O)Cc2ccccc2)cc1	inactive: 4.5%
Cc1cc(C)c(-c2csc(NC(=O)/C=C/c3cccs3)n2)c(C)c1	inactive: -0.163%
CC(=O)NC1=C(Nc2ccc(N(C)C)cc2)C(=O)c2ccccc2C1=O	inactive: -8.71%
NC(=O)NC[C@@H]1CC[C@@H](Cc2ccc(-c3ccccc3)cc2)O1	inactive: 0.229%
O=C(O)c1ccc(Cl)cc1Nc1nc2cc(Cl)ccc2o1	inactive: -3.11%
Clc1ccc2c(c1)-c1nnc(Br)n1-c1ccccc1S2	inactive: 6.35%
CNS(=O)(=O)c1cccc(C(=O)OCC(=O)N2c3ccccc3NC(=O)C2(C)C)c1	inactive: -0.504%
O=C(Nc1ccc(C(=O)NCc2ccccc2Cl)cc1)C1=CSCCO1	inactive: 1.3%
CN(C)c1ccc(/C=C/c2cc[n+](C)cc2)cc1	inactive: -7.72%
CN1/C(=C\C(=O)c2oc3ccccc3c2N)C(C)(C)c2ccccc21	inactive: -10.2%
O=C(COC(=O)c1ccccc1NS(=O)(=O)c1cccs1)NCC12CC3CC(CC(C3)C1)C2	inactive: 3.82%
C=CCN1C(=O)/C(=C/c2ccc(OC(C)=O)c(OCC)c2[N+](=O)[O-])SC1=S	inactive: -2.38%
CN(C)/C=C(/C(=O)c1ccc(Cl)cc1)S(=O)(=O)c1ccc(Cl)cc1	inactive: 4.41%
COc1cc(NS(=O)(=O)c2ccc(NC(=O)c3ccc(F)cc3)cc2)ncn1	inactive: 1.88%
Cc1cc(C)n2c(C)nnc2c1	inactive: 6.7%
CC1CC1C(=O)N1CCN(S(=O)(=O)c2cc(C(F)(F)F)cc(C(F)(F)F)c2)CC1 (stereo unspecified)	inactive: 3.34%
CC(C)c1cc(=O)n2[nH]c(SCc3ccccc3)nc2n1	inactive: -3.58%
COc1ccccc1C(=O)COC(=O)/C=C/c1ccccc1	inactive: 3.14%
Cc1cccc(-c2noc(CN(C)C(=O)c3ccco3)n2)c1	inactive: 0.764%
CN(C)C(=O)[C@H]1C[C@H]1[C@@H](O)[C@H](CO)NC(=O)[C@H](COCc1ccccc1)NC(=O)OC(C)(C)C	inactive: 4.47%
CCOc1ccccc1/C=C/c1onc(C)c1S(=O)(=O)N1CCC(C(=O)N2CCCCCC2)CC1	inactive: 4.62%
CCn1c(=NC(=O)CSC(C)=O)sc2ccccc21	inactive: 0.315%
Cc1cccc(NC(=O)C2CCN(S(=O)(=O)c3ccc4c(c3)NC(=O)CO4)CC2)c1	inactive: -2.44%
N#Cc1cccc(NC(=O)COC(=O)c2cc(S(=O)(=O)Nc3ccccc3Cl)ccc2O)c1	inactive: -6.09%
CC1=NN(C(N)=S)C(=O)C1N=Nc1c(Br)cc(Br)cc1Br (stereo unspecified)	inactive: -9.64%
Cc1cc(C#N)c(SCC(N)=O)nc1-c1ccc(F)cc1	inactive: 8.09%

Compound	activity change, negative = inhibition
CC(C)(C)C(=O)NC(=S)NNC(=O)c1ccc(-c2ccccc2)cc1	inactive: -5.87%
COCC(C)n1c(COc2ccccc2F)nnc1SCc1c(C)noc1C (stereo unspecified)	inactive: 2.74%
N=c1oc2cc(O)ccc2cc1C(=O)Nc1ccc(Br)cc1	inactive: -11.5%
Cc1csc(NC(=O)c2cc3c(s2)CCCC3)n1	inactive: -0.817%
COc1cc(C(C)=O)ccc1OCC(=O)Nc1ccc(C)c(S(=O)(=O)N2CCCCCC2)c1	inactive: -6.36%
CN(c1ccc(C(=O)NCCSCc2ccccc2)cc1)S(=O)(=O)c1ccccc1	inactive: -8.58%
Brc1ccc(-c2nnc(-c3cccc(Br)c3)o2)cc1	inactive: 5.65%
Cc1ccc(SC(CC(=O)c2ccc(C(C)(C)C)cc2)C(=O)O)cc1 (stereo unspecified)	inactive: -0.787%
O=c1nc(/C=C/c2ccccc2C(F)(F)F)cc(C(F)(F)F)[nH]1	inactive: 1.4%
O=C(Nc1nc2ccc(F)cc2s1)C1CCN(S(=O)(=O)c2cc([N+](=O)[O-])ccc2Cl)CC1	inactive: -2.66%
COc1ccccc1NS(=O)(=O)c1cc(NC(=O)c2ccc3c(c2)OCCO3)ccc1C	inactive: -1.4%
CC(=O)NC12CC3CC(C1)CC(C(=O)OCC(=O)c1ccc4c(c1)OCCO4)(C3)C2	inactive: 3.23%
CC1CC(C)CN(CCCNC(=O)CN2C(=O)COc3ccc(S(=O)(=O)N4CCOCC4)cc32)C1 (stereo unspecified)	inactive: 4.98%
Cc1ccc(Nc2nc(N3CCOCC3)nc(N3CCOCC3)n2)cc1Cl	inactive: -1.63%
Cc1ccc(S(=O)(=O)N2CCN(C(=O)Cc3ccsc3)CC2)c(C)c1	inactive: 3.15%
CC(C)Nc1nc(SC(C)C(=O)Nc2ccccc2)nc(N(C)C)n1 (stereo unspecified)	inactive: 1.47%
CC1CCCC(NC(=O)CN2C(=O)COc3ccccc32)C1C (stereo unspecified)	inactive: 0.576%
Cc1ccccc1N1CCN(C2CCCN(C(=O)c3cnsn3)C2)CC1 (stereo unspecified)	inactive: -0.898%
CCCCOc1ccc(/C=N/Nc2cc(N3CCOCC3)nc(C)n2)cc1	inactive: -18.4%
Cc1ccc(S(=O)(=O)c2c(C(=O)c3ccccc3)cnc3cc4c(cc23)OCCO4)cc1	inactive: 4.46%
O=C(CNc1ccc(C(F)(F)F)cc1)Nc1cccc(S(=O)(=O)N2CCCC2)c1	inactive: 0.458%
CCOC(=O)c1sc(NC(=O)c2cc(-c3ccccc3)nc3ccccc23)c(C#N)c1C	inactive: -3%
O=C(O)c1nn(CC(=O)N2CCN(c3ncc(C(F)(F)F)cc3Cl)CC2)c(=O)c2ccccc12	inactive: -0.862%
COC(=O)CSc1nc(-c2ccccc2)cc(-c2ccco2)c1C#N	inactive: -1.63%
O=C(c1ccco1)N1CCN(c2ncnc3c2nnn3Cc2ccccc2Cl)CC1	inactive: -8.18%
Cc1nn(-c2ccccc2)c(C)c1NC(=O)COc1ccc(Br)cc1Cl	inactive: 2.09%

Entries listed so far containing a thiophene ring, fused or not (five):
Compound	activity change, negative = inhibition
Cc1cc(C)c(-c2csc(NC(=O)/C=C/c3cccs3)n2)c(C)c1	inactive: -0.163%
O=C(COC(=O)c1ccccc1NS(=O)(=O)c1cccs1)NCC12CC3CC(CC(C3)C1)C2	inactive: 3.82%
Cc1csc(NC(=O)c2cc3c(s2)CCCC3)n1	inactive: -0.817%
Cc1ccc(S(=O)(=O)N2CCN(C(=O)Cc3ccsc3)CC2)c(C)c1	inactive: 3.15%
CCOC(=O)c1sc(NC(=O)c2cc(-c3ccccc3)nc3ccccc23)c(C#N)c1C	inactive: -3%

More compounds:

Compound	activity change, negative = inhibition
CC(=O)N1c2ccc(S(=O)(=O)NCCC(=O)Nc3ccccc3C)cc2CC1C (stereo unspecified)	inactive: 5.94%
CC1(C)CC2(CCCN3C(=O)CSC32)CCS1 (stereo unspecified)	inactive: 4.66%
O=C(Nc1cccc2ccccc12)c1ccccc1	inactive: 3.19%
COc1ccc(C(=O)NC2CCCc3c2cnn3-c2cccc(C)c2C)c(OC)n1 (stereo unspecified)	inactive: -0.938%
Cc1ccc(NC(=O)c2nc(S(=O)(=O)Cc3ccccc3C)ncc2Cl)cc1C	inactive: 3.07%
Cc1ccccc1NC(=O)C1C2CCCCC21 (stereo unspecified)	inactive: 4.92%
O=C(OCc1cc(Cl)ccc1OC(F)F)c1cncc(Br)c1	inactive: -3.16%
COc1ccc(Cc2nc(-c3ccc(-n4cccc4)cc3)no2)cc1OC	inactive: 2.07%
O=C(Nc1ccc(Cl)c(Cl)c1)Nc1ccccc1O	inactive: -4.98%
COc1ccc(C(=O)N2CCN(c3ccc([N+](=O)[O-])c(NCCc4ccc(OC)c(OC)c4)c3)CC2)cc1	inactive: -1.33%
Cc1cccc(N2CCN(S(=O)(=O)c3ccc4c(c3)NC(=O)CS4)CC2)c1C	inactive: -0.143%
CC(=O)C1=C(O)C(=O)N(c2ccc(O)cc2)C1c1cccc(F)c1 (stereo unspecified)	inactive: 6.42%
COc1ccc(NS(=O)(=O)c2cccc(NC(=O)c3ccc(S(=O)(=O)N4CCCCCC4)cc3)c2)cc1	inactive: 0.652%
Cc1ccc(C)c(N2CCN(C(=O)C(Cc3ccccc3)n3cccc3)CC2)c1 (stereo unspecified)	inactive: -0.353%
CC(C)C(=O)Nc1c(-c2ccc(Cl)cc2)c(=O)c2ccccc2n1C	inactive: 2.82%
Cc1c(C=O)c2ccccc2n1CCOc1ccccc1	inactive: 0.0197%
O=c1cc(C(F)(F)F)[nH]c2c(C(F)(F)F)cccc12	inactive: 1.05%
Cc1ccc(S(=O)(=O)/N=C2/NC(=O)/C(=C\c3cc(Br)cc(Br)c3O)S2)cc1	inactive: 3.98%
O=C(NC1CCOc2ccccc21)c1ccccn1 (stereo unspecified)	inactive: 4%
COC(=O)CSc1nc(NCc2ccccc2)nc(N(C)C)n1	inactive: -0.113%
O=C(NCc1ccc2c(c1)OCO2)C12CN(Cc3ccccc3)CC1C(c1cccc([N+](=O)[O-])c1)=NO2 (stereo unspecified)	inactive: 4.74%
O=C(CSc1ccccn1)Nc1cccc2ccccc12	inactive: 4.24%
Cc1cc(C)cc(OC(C)C(=O)NCCCn2ccnc2)c1 (stereo unspecified)	inactive: 5.36%
COC(=O)CCN(Cc1cc(OC)ccc1OC)S(=O)(=O)c1ccccc1Br	inactive: 0.609%
C/C(=N\NC(=O)c1nnn(-c2nonc2N)c1-c1ccc(Cl)c(Cl)c1)c1ccncc1	inactive: -4.56%
CCn1nc(C)c(NC(=O)/C=C/c2ccc(OC)c(COc3ccc(Br)cc3)c2)c1C	inactive: -1.82%

Compound	activity change, negative = inhibition
Cc1ccc(-c2cc(C(=O)Nc3ccncc3)c3ccccc3n2)cc1	inactive: -1.46%
O=S(=O)(c1ccc(SCc2ccc(Cl)cc2)nc1)N1CCCC1	inactive: 6.26%
Cc1ccc(NS(=O)(=O)c2cc(C(=O)Nc3cccc([N+](=O)[O-])c3)ccc2C)cc1	inactive: -5.13%
Cc1ccc(-c2cn3cc(C)ccc3n2)cc1	inactive: 2.4%
COc1ccc(NS(=O)(=O)c2ccc3c(c2)Cc2ccccc2-3)cn1	inactive: -0.188%
NC(=O)CSc1oc(-c2ccco2)nc1S(=O)(=O)c1ccccc1	inactive: 1.42%
CC1S/C(=N\N=C\c2cccc([N+](=O)[O-])c2)N(C(C)(C)C)C1=O (stereo unspecified)	inactive: -1.55%
CCN(CC)S(=O)(=O)c1cccc(C(=O)/C=C2/N(C)c3ccccc3C2(C)C)c1	inactive: -8.84%
COc1ccc(/C=C/C(=O)N2CCN(C)CC2)cc1OC	inactive: 4.72%
COc1cc2ccccc2cc1C(=O)N1CCCC1	inactive: 2.38%
CCOC(=O)C1=C(C)Nc2ccccc2N=C1NC(=O)c1cc(C)on1	inactive: 3.54%
COC(=O)[C@H]1[C@H]2C[C@@H]3c4[nH]c5cc(OC)ccc5c4CCN3C[C@H]2C[C@@H](OC(=O)/C=C/c2cc(OC)c(OC)c(OC)c2)[C@@H]1OC	inactive: -3.39%
COc1ccccc1CNc1ncnc2sccc12	inactive: 1.11%
COc1ccc(OC)c(NC(=O)CSc2ncnc3c2cnn3-c2ccccc2Cl)c1	inactive: 5.57%
CN(C)S(=O)(=O)N1CCN(c2ccnc3cc(Cl)ccc23)CC1	inactive: 0.353%
COc1cccc(-c2nc(CS(=O)(=O)CC(=O)NC3CCCCCC3)c(C)o2)c1	inactive: -0.472%
CC(=O)c1ccc(N(C(=O)CNC(=O)c2ccco2)C(C(=O)NC2CCCC2)c2ccncc2)cc1 (stereo unspecified)	inactive: 4.76%
Cc1ccc(C2(c3ccc(C)cc3)CC2C(=O)Nc2ccc([N+](=O)[O-])cc2O)cc1 (stereo unspecified)	inactive: -4.43%
CC1=C(C(=O)OCC(Cl)(Cl)Cl)N2C(=O)C(NC(=O)Cc3ccccc3)C2SC1 (stereo unspecified)	inactive: 1.45%
COc1ccc(-c2csc(NC(=O)c3ccccc3NS(=O)(=O)c3ccc(C)cc3)n2)cc1	inactive: -5.21%
CCOC(=O)Cc1csc(NC(=O)COc2ccc(N(C)S(=O)(=O)c3cccs3)cc2)n1	inactive: -7.57%
O=C(NCCC1=CCCCC1)C(=O)NCC1OCCCN1S(=O)(=O)c1cc(F)ccc1F (stereo unspecified)	inactive: 2.13%
CS(=O)(=O)N1CCc2cc(C(=O)Nc3ccc(COCC(F)(F)F)cc3)ccc21	inactive: -0.734%
